# The campaign covered roughly 360,000 compounds. About 10,000 (2.8%) were called active. The inconclusive results got no clear call from the source; some entries with a clear call stand among them for comparison. Calls come from the whole dose curve; as a rule, active = well fitted inhibition curve with a large enough effect; inconclusive = small, poorly fitted or top-dose-only effect; inactive = flat fitted curve, though single readings scatter. Potencies of inconclusive entries are doubtful fits and often do not repeat.
# Amino acid sequences for entries named in this document (tags omitted).
# UniProt P53350, whole entry, looked up: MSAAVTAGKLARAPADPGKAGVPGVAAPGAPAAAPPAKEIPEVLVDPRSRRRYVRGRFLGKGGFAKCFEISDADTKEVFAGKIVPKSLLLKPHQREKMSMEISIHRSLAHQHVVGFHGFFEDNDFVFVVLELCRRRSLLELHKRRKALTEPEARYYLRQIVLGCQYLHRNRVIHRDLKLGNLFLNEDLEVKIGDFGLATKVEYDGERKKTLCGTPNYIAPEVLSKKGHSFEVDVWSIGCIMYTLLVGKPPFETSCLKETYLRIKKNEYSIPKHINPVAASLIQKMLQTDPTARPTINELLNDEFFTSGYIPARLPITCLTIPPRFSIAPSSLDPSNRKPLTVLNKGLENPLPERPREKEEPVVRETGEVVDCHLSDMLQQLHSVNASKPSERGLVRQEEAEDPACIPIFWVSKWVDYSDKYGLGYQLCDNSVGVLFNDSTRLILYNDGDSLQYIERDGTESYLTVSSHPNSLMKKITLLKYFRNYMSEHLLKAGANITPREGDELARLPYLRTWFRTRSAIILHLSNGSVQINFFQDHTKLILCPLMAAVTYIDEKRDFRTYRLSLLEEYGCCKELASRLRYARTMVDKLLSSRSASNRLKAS
# Molecular target: Serine/threonine-protein kinase PLK1 (Homo sapiens) (UniProt P53350)
# Test: qHTS for Inhibitors of PLK1-PDB (polo-like kinase 1 - polo-box domain): Primary Screen; note: nearly all actives have a fitted effect of over 65% in size; for max response, negative = inhibition: series mostly up to about 57 µM
# Conditions: Plk1 PBD binding of FITC phosphopeptide, fluorescence polarization
# % is set by controls: 0 for no effect and ±100 for the full control effect; potency is the fitted concentration of half-maximal effect.
Structure (SMILES),"max response, negative = inhibition",Potency
O=C(CNC(=S)N(Cc1ccccc1)Cc1ccccc1F)NCCc1ccc(Cl)cc1,inactive: -3.01%,
Cc1ccc(C(=O)NNC(=S)NC(=O)c2ccccc2)cc1,inconclusive: -34.6% [inhibitor],
Fc1ccccc1/C=C1\CCCC2=C1Nc1nnnn1C2c1ccccc1F (stereo not given),,"inconclusive: 5.97 µM [inhibitor, full curve]"
COC(=O)[C@H]1[C@@H](C)N(Cc2ccccc2)C(=O)N[C@H]1c1cccc(C(F)(F)F)c1,,"inconclusive: 37.7 µM [inhibitor, single point]"
Cc1c([N+](=O)[O-])c([N+](=O)[O-])nn1CC(=O)NCc1cccnc1,,"inconclusive: 16.8 µM [inhibitor, partial curve]"
CC(=O)N(C)c1ccc(OCC(O)CN(c2ccccc2C)S(=O)(=O)c2ccc(C)cc2)cc1 (stereo not given),inactive: 4.6%,
C/C(Cl)=C/Cn1c(SCc2ccc(Cl)cc2)nc2c1c(=O)[nH]c(=O)n2C,,"inconclusive: 8.44 µM [inhibitor, partial curve]"
CN1CCc2nc(SCC(=O)Nc3cccc(F)c3)c(C#N)c(-c3cccs3)c2C1,,"inconclusive: 26.7 µM [inhibitor, partial curve]"
O=C1CC(c2ccncc2)c2cc3c(cc2N1)OCCO3 (stereo not given),inactive: -6.38%,
O=C(CSc1ccccc1)N1CCN(S(=O)(=O)c2ccccc2F)CC1,,"inconclusive: 5.97 µM [inhibitor, full curve]"
COc1ccc(N(C)C(=O)c2ccc3c(Cl)c4c(nc3c2)CCCC4)c(OC)c1,,"inconclusive: 23.8 µM [inhibitor, partial curve]"
Cc1ccc2[nH]c(=O)c3cc(C(=O)NC(C)C)sc3c2c1,,"inconclusive: 23.8 µM [inhibitor, single point]"
CC(C)C1C(=O)N(Cc2cn(Cc3ccco3)nn2)CCS(=O)(=O)N1Cc1ccc(-c2ccncc2)cc1 (stereo not given),inactive: -2.49%,
CC(C)(C)c1ccc(/C=N/Nc2ccc(C(=O)O)cc2)cc1,,"inconclusive: 23.8 µM [inhibitor, single point]"
O=C(OCCN1CCOCC1)c1ccccc1,,active: 23.8 µM
CCOc1ccc(S(=O)(=O)N2Cc3ccccc3CC2C(=O)O)cc1 (stereo not given),,"inconclusive: 33.6 µM [inhibitor, partial curve]"
COc1ccc(NC(=O)c2c(N)no[n+]2[O-])cc1,inactive: -11.6%,
Cc1cc(C)nc(N/N=C/C2=C(N3CCOCC3)C(=C\c3ccc(Cl)cc3)/CC2)n1,,"inconclusive: 26.7 µM [inhibitor, single point]"
O=C(CCc1nnc(CCCCc2ccccc2)o1)NCCn1cccn1,,"inconclusive: 8.44 µM [inhibitor, single point]"
O=C(C1=C[C@@H](c2ccc(C(F)(F)F)cc2)C[C@@H](OCCCCO)O1)N1CCOCC1,,"inconclusive: 37.7 µM [inhibitor, single point]"
C[C@H](NC(=O)C1CCN(S(=O)(=O)c2ccccc2)CC1)C(=O)NCc1ccc(Cl)cc1Cl,inactive: -9.89%,
O=S(=O)(Nc1nc2ccccc2nc1Nc1ccc2c(c1)OCO2)c1ccc(F)cc1,,"inconclusive: 21.2 µM [inhibitor, single point]"
Cc1ccc(N=C2S/C(=C/c3cccc(OCC(=O)O)c3)C(=O)N2C)cc1C,,"inconclusive: 29.9 µM [inhibitor, partial curve, poor fit]"
CCCc1nnc(NS(=O)(=O)c2ccc(OC)cc2)s1,inconclusive: -31.8% [inhibitor],

Structure (SMILES),"max response, negative = inhibition",Potency
Cn1c(=S)[nH]c2scc(-c3cccs3)c2c1=O,,"inconclusive: 29.9 µM [inhibitor, partial curve]"
COc1ccccc1NC(=O)C(C)OC(=O)CCCc1c[nH]c2ccccc12 (stereo not given),inactive: -0.204%,
COc1ccccc1N1CCN(C(=O)C2CCCCN2S(=O)(=O)c2ccc(C)cc2)CC1 (stereo not given),,"inconclusive: 26.7 µM [inhibitor, partial curve]"
Cc1nc2scc(-c3cccs3)c2c(=O)[nH]1,,"inconclusive: 21.2 µM [inhibitor, partial curve]"
Cc1ccc(N(Cc2cc(=O)[nH]c3ccccc23)C(=O)C(C)C)c(C)c1,inactive: -5.8%,
CN(C)C(CNC(=O)c1cccc(S(=O)(=O)Nc2ccc(SC(F)F)cc2)c1)c1ccccc1 (stereo not given),,"inconclusive: 23.8 µM [inhibitor, partial curve]"
CCOC(=O)c1c(C(=O)OCC)c(C)n(Cc2cc(OC)c(OC)c(OC)c2)c1C,,"inconclusive: 37.7 µM [inhibitor, single point]"
COCCCNC(=O)c1oc2ccc(S(=O)(=O)N3CCOCC3)cc2c1C,,"inconclusive: 21.2 µM [inhibitor, partial curve, poor fit]"
C#CCN(C[C@H]1[C@H](OC(=O)NC2CCCC2)[C@H](OC(=O)NC2CCCC2)C[C@@H](C(=O)OC)[C@H]1C(=O)OC)S(=O)(=O)c1ccc(C)cc1,,"inconclusive: 13.4 µM [inhibitor, partial curve]"
CN1CCC(N(C)S(=O)(=O)c2ccc(NC(=O)COc3ccc(Br)cc3Cl)cc2)CC1,inactive: -15.5%,
CCN1CCN(Cc2ccc(NC(=O)Nc3ccccc3OC)cc2)CC1,,"inconclusive: 23.8 µM [inhibitor, partial curve]"
CCC(C)(C)n1nnnc1C(c1ccc(O)c(OC)c1)N1CCc2ccccc2C1 (stereo not given),,active: 26.7 µM
Cc1ccc(S(=O)(=O)N/N=C/c2cccc([N+](=O)[O-])c2)cc1,,"inconclusive: 13.4 µM [inhibitor, partial curve]"
C=Cc1ccc(CN2CCCN(Cc3ccc(F)cc3)S2(=O)=O)cc1,inactive: 2.19%,
COc1ccc(-c2csc(NC(=O)CCN3C(=O)C4CC=CCC4C3=O)n2)cc1OC (stereo not given),inactive: -1.53%,
Cc1sc2ncnc(Sc3nnnn3-c3ccc(Cl)cc3)c2c1C,,"inconclusive: 21.2 µM [inhibitor, single point]"
CCN(CC)CCCSc1nc2ccccc2s1,,"inconclusive: 21.2 µM [inhibitor, single point]"
CC(C)(C)C1CCc2c(sc3c2C(=O)NC(c2ccco2)N3)C1 (stereo not given),,"inconclusive: 26.7 µM [inhibitor, partial curve]"
c1csc(-c2nc3ccccc3s2)c1,,"inconclusive: 2.99 µM [inhibitor, partial curve]"
CC(C)(C)c1nnc(NS(=O)(=O)c2cc(Cl)ccc2Cl)s1,,"inconclusive: 23.8 µM [inhibitor, partial curve]"
NN(Cc1ccccc1)C(=S)Nc1ccc(Cl)c(Cl)c1,inactive: 3.5%,
CCOC(=O)N1CCN(C(=O)CSc2ccc(-c3ccc(OC)cc3)nn2)CC1,inconclusive: -34.5% [inhibitor],
Cc1cc(C)nc(-n2nc(C)cc2NC(=O)CN2CCC(C)CC2)n1,inactive: -7.55%,
CC1Cc2ccccc2N1C(=O)CN1CCC(n2nnc3cc(C(F)(F)F)ccc32)CC1 (stereo not given),,"inconclusive: 26.7 µM [inhibitor, partial curve]"

# Of the compounds above, these contain a CF3 group.
Structure (SMILES),"max response, negative = inhibition",Potency
COC(=O)[C@H]1[C@@H](C)N(Cc2ccccc2)C(=O)N[C@H]1c1cccc(C(F)(F)F)c1,,"inconclusive: 37.7 µM [inhibitor, single point]"
O=C(C1=C[C@@H](c2ccc(C(F)(F)F)cc2)C[C@@H](OCCCCO)O1)N1CCOCC1,,"inconclusive: 37.7 µM [inhibitor, single point]"
CC1Cc2ccccc2N1C(=O)CN1CCC(n2nnc3cc(C(F)(F)F)ccc32)CC1 (stereo not given),,"inconclusive: 26.7 µM [inhibitor, partial curve]"

# Remaining list, next part.

Structure (SMILES),"max response, negative = inhibition",Potency
CCOc1ccc(C2(C)NC(=O)N(CCN(C)C)C2=O)cc1 (stereo not given),inactive: -6.43%,
Brc1ccc(C2Nc3cccc4cccc(c34)N2)s1,,"inconclusive: 18.9 µM [inhibitor, partial curve]"
CCCCN1CCc2c([nH]c3c(C)cccc23)C1=O,,active: 3.36 µM
Cn1nnnc1-c1cc(Cl)cc(Cl)c1,,active: 26.7 µM
COc1ccccc1N1CCN(C(=O)C2c3ccccc3Oc3ccccc32)CC1,inactive: -3.09%,
COc1ccc(NC(=O)CSc2ccccc2)cn1,,"inconclusive: 26.7 µM [inhibitor, partial curve]"
COc1cccc2cc(C(=O)NCCC3=CCCCC3)c(=O)oc12,inactive: -26.2%,
CC(C)c1ccc(NC(=O)C2CCN(c3ncnc4c3nc3n4CCCCC3)CC2)cc1,,active: 29.9 µM
O=C(COc1c(Cl)cccc1Cl)NN1C(=O)CSC1=S,,active: 18.9 µM
N#Cc1cc(Sc2ccccn2)c(Sc2ccccn2)cc1C#N,,"inconclusive: 28.2 µM [inhibitor, partial curve]"
O=C(CSc1ccc2c(c1)OCCO2)Nc1ccc(N2CCOCC2)cc1,,"inconclusive: 33.6 µM [inhibitor, partial curve]"
COC(=O)c1cc(NC(=O)c2ccccc2)c(=O)oc1C,,"inconclusive: 21.2 µM [inhibitor, single point]"
Cc1cc(C)n(CCc2nc(-c3ccc(C(C)(C)C)cc3)cs2)n1,inactive: -13.5%,
CC1(c2nnc(-c3ccc(Cl)cc3)o2)CC(c2cccnc2)=NO1 (stereo not given),inactive: -1.84%,
Cc1ccc(-c2cc(-c3n[nH]c(=S)n3C)c3ccccc3n2)cc1,,"inconclusive: 29.9 µM [inhibitor, partial curve]"
COc1cc(CN2CCN(C3CCC3)CC2CCO)cc(OC)c1 (stereo not given),inactive: -1.56%,
O=C(CSc1ccccn1)c1ccc(F)cc1,,active: 26.7 µM
CC(C)CN(C(=O)COC(=O)c1cc2c(s1)CCC2)C1CCS(=O)(=O)C1 (stereo not given),,"inconclusive: 29.9 µM [inhibitor, single point]"
COc1ccc(C2=CC(c3cc(OC)c(OC)c(OC)c3)NC(=S)N2)cc1 (stereo not given),,active: 11.9 µM
CC(C)Nc1nc(NC(N)=S)nc(NC(C)(C)C)n1,inconclusive: -36.9% [inhibitor],
CCN(CC)S(=O)(=O)c1ccc(OC)c(NC(=O)CSc2ccccc2)c1,,"inconclusive: 3.36 µM [inhibitor, full curve]"
O=C1C(=O)N(CCCN2CCOCC2)C(c2ccc(Cl)cc2)/C1=C(\O)c1ccc2c(c1)OCCO2 (stereo not given),,active: 23.8 µM
